Test results: PMC7312527 (International Journal of Molecular Sciences, 2020)
No constants are given. Whether binding was seen depends on the method and setting.

Amino acid sequences for entries named in this document (tags omitted). Residues count along the entry.
UniProt P22303, residues 52-577: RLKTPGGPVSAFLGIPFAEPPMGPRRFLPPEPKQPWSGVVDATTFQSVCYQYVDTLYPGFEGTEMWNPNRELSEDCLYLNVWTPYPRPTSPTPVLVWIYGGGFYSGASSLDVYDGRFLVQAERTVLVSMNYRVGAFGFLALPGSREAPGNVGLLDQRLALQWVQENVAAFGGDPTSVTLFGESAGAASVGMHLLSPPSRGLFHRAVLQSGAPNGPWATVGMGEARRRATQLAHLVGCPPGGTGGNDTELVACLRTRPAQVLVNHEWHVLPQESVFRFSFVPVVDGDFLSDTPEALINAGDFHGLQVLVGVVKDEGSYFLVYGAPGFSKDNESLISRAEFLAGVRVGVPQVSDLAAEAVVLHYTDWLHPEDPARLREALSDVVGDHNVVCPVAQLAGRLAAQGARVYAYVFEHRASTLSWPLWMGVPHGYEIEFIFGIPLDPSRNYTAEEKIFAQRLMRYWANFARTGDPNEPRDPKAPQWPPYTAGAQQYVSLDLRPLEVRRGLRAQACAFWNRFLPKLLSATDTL
UniProt P27338, residues 1-489: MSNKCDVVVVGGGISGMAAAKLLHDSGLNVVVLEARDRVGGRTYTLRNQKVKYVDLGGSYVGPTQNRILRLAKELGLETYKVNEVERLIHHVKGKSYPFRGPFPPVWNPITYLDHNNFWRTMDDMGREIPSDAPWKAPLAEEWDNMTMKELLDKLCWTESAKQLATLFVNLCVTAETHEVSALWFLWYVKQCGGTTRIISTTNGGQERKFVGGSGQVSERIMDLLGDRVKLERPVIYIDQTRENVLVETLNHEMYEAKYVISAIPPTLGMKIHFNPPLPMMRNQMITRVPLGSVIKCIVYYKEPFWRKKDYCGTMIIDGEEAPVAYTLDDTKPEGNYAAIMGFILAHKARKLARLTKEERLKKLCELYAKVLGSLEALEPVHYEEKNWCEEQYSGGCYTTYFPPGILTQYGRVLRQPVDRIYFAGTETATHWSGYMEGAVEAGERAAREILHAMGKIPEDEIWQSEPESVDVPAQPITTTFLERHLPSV

How the values were obtained:
[1] = target: human acetylcholinesterase (AChE), aa 52-577, bait from pGBKT7-hAChE (human) (UniProt P22303); assay: two-hybrid; Matchmaker Gold Y2H, small-scale mating (5 mL) of Y2HGold (bait AChE) with Y187 (preys), plated on DDO/X/A agar (Aureobasidin A 200 ng/mL, X-alpha-Gal 40 µg/mL), no hybrid ligand
[2] = target: human acetylcholinesterase (AChE), aa 52-577, bait from pGBKT7-hAChE (human) (UniProt P22303); assay: yeast three-hybrid; small-scale mating (10 mL) with 10 µM hybrid ligand, plated on DDO/X/A agar with 10 µM hybrid ligand; blue colony moved to QDO/X/A with 10 µM hybrid ligand, then to QDO/X/A without it

Substance	binding [1]	binding [2]
human microtubule associated protein tau (MAPT), entire protein (aa 1-758), prey from pGADT7-hMAPT (from UniProt P10636-1 1-758)	no binding	no binding (tested: 10 µM hybrid ligand)
human monoamine oxidase B (MAO B), cytoplasmic domain (aa 1-489), prey from pGADT7-hMAO B (from UniProt P27338 1-489) (domain or fragment)	no binding	no binding (tested: 10 µM hybrid ligand)
